Measurements as given in patent US6379670B1, “Methods for treatment of multiple sclerosis using peptide analogs of human myelin basic protein” (Neurocrine Biosciences, Inc., priority 1994, dated 2002).
Part of at least one peptide drawing is inferred or uncertain, most often the ends.

Legend:
[1] = tested on: draining lymph node cells from Lewis rats immunized with MBP (87-99); assay: Antigen-specific lymph node cell proliferation assay; format: cell-based, Lewis rat; conditions: 10 μM peptide, FIG. 2
[2] = tested on: rat MHC class II I-A or I-E on splenic adherent cells; assay: MHC binding assay (competition with biotin-labeled MBP peptide, flow cytometry); parameters: species or system Lewis rat
Protocol: Binding of peptides to MHC molecules may be assayed on whole cells. Briefly, Lewis rat spleen cells are cultured for 3 hours to allow adherent cells to stick to polystyrene petri dishes. Non-adherent cells are removed. Adherent cells, which contain cells expressing MHC class II molecules, are collected by scraping the dishes. The binding of peptide analogs to cells is measured by a fluorescence assay. In this assay, splenic adherent cells are mixed with different concentrations of peptide analogs and incubated for 1 hour at 37° in a CO2 incubator. Following incubation, biotinlabeled MBP (87-99) is added to the culture wells. The cells are incubated for another hour and then washed three times in medium. Phycoerythrin-conjugated or fluorescein-conjugated streptavidinis added along with a fluorochrome-labeled OX-6 or OX-17 monoclonal antibody, which reacts with rat MHC Class II I-A and I-E, respectively. The cells are washed twice before analysis by flow cytometry. Fluorescence intensity is calculated by subtracting the fluorescence value obtained from cells stained with phycoerythrin-streptavidin alone (control staining) from the fluorescence value obtained from biotin-labeled MBP native peptide plus phycoerythrin-streptavidin (experimental staining). Staining without analog establishes a 100% value. Percent inhibition is calculated for each analog and expressed as IC50 values.
The ability of MBP peptides and peptide analogs to bind MHC was measured. […] The binding of MBP (87-99) analogs was measured using a fluorescence assay. […] Fluorescence intensity for each sample was calculated by subtracting the fluorescence obtained from OX positive cells stained with phycoerythrin-streptavidin alone (control staining) from the fluorescence obtained from OX positive cells stained with biotin-labeled MBP plus phycoerythrin-streptavidin. Percent inhibition was calculated for each analog and expressed as IC50 values.

[3] = tested on: MBP (87-99) reactive T cells; assay: Antagonism of T cell proliferation assay; format: cell-based, rat; conditions: FIG. 6
[4] = tested on: EAE in Lewis rats; assay: Treatment of MBP-induced EAE in Lewis rats (intraperitoneal); format: in vivo, Lewis rat; conditions: 1 mg intraperitoneally on days 9 and 10 after immunization, two experiments, FIG. 7

SMILES | stimulation of lymph node cell proliferation [1] | inhibition of binding of biotin-labeled MBP peptide to MHC ([2]; at 100 μM) [%] | concentration at which analog caused inhibition of proliferation [3] [μM] | inhibition of proliferation of MBP reactive T cell line [3] | prevention of development of EAE [4] | competition for MHC against MBP (87-99) [2] | inhibition of binding of biotin-labeled MBP peptide to MHC ([2]; at 200 μM) [%]
CC[C@H](C)[C@H](NC(=O)[C@H](CC(N)=O)NC(=O)[C@H](CCCCN)NC(=O)[C@H](Cc1ccccc1)NC(=O)[C@H](Cc1ccccc1)NC(=O)[C@H](Cc1c[nH]cn1)NC(=O)[C@@H](N)C(C)C)C(=O)N[C@H](C(=O)N[C@H](C(=O)N1CCC[C@H]1C(=O)N[C@@H](CCCNC(=N)N)C(=O)N[C@H](C(=O)N1CCC[C@H]1C(=O)O)[C@@H](C)O)[C@@H](C)O)C(C)C [MBP (87-99)] | stimulated lymph node cells | 40 |  |  |  |  | 
CC[C@H](C)[C@H](NC(=O)[C@H](CC(N)=O)NC(=O)[C@H](C)NC(=O)[C@H](Cc1ccccc1)NC(=O)[C@H](Cc1ccccc1)NC(=O)[C@@H](Cc1c[nH]cn1)NC(=O)[C@@H](N)C(C)C)C(=O)N[C@H](C(=O)N[C@H](C(=O)N1CCC[C@H]1C(=O)N[C@@H](CCCNC(=N)N)C(=O)N[C@H](C(=O)N1CCC[C@H]1C(=O)O)[C@@H](C)O)[C@@H](C)O)C(C)C [h88/A91] |  |  | 150 | significantly inhibited proliferation | effective in preventing significantly the development of EAE | competed as effectively as MBP (87-99) | 67.64
